Results deposited as PubChem BioAssay AID1224828 (NIAID, 2016)
In all, the deposit lists about 17,000 reagents; shown is a part drawn at random. Over the whole deposit, 762 (4.5%) were called active. 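Active calls include both raised and lowered p65 entry, mostly lowered; wells with fewer than 50 cells lack a z-score.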 Raw values vary from plate to plate and are shown uncorrected. The numbers tell different reagents against one gene apart. Reagent sequences are not shown.

Aim: 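Find genes required for NF-kappaB p65 moving into the nucleus after LPS in mouse macrophages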 (primary screen)
Cell system: mouse RAW264.7 G9 macrophage reporter cells (GFP-p65, Tnf promoter-mCherry)
Reagents: siRNA pool against mouse genes, 100 nM
Duration: 2 days siRNA transfection, then 40 min LPS before fixation
Challenge: LPS (Salmonella minnesota R595) at 10 ng/ml
Detection: 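Imaged p65 nuclear translocation ratio, normalised to the plate median, converted to robust z-scores and averaged across two replicates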
Scale: p65 translocation robust z-score: higher = more nuclear NF-kappaB p65 after LPS than the plate median; nuclear/cytoplasmic p65 ratio: higher = more nuclear NF-kappaB p65
Call rule: 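Called active when z exceeds 3.3 or falls under -1.56 (median of Tlr4 controls), giving activity score of at least 50; no calls for control wells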
Calls: active = hit (p65 shift raised or lowered); inactive = no clear change

gene symbol | reagent | p65 translocation robust z-score | nuclear/cytoplasmic p65 ratio, rep 1 | nuclear/cytoplasmic p65 ratio, rep 2 | low cell count flag | outcome
Frs2 (GeneID 327826) | 1 | -0.03 | 1.43 | 1.37 | enough cells to score | inactive
Igfbp7 (GeneID 29817) | 1 | -0.12 | 1.44 | 1.34 | enough cells to score | inactive
Cbr2 (GeneID 12409) | 1 | 0.45 | 1.69 | 1.82 | enough cells to score | inactive
Eif4enif1 (GeneID 74203) | 1 | 0.15 | 1.48 | 1.52 | enough cells to score | inactive
Gpc5 (GeneID 103978) | 1 | -0.52 | 1.58 | 1.45 | enough cells to score | inactive
Ogfod3 (GeneID 66179) | 1 | -0.92 | 1.41 | 1.32 | enough cells to score | inactive
Clu (GeneID 12759) | 1 | 0.22 | 1.52 | 1.38 | enough cells to score | inactive
Tmod4 (GeneID 50874) | 1 | – | 1.31 | 1.04 | fewer than 50 cells per well; well left out of scoring | inactive
A730008H23Rik (GeneID 212427) | 1 | 0.43 | 1.78 | 1.57 | enough cells to score | inactive
U55872 (retired record) (GeneID 57433) | 1 | – | 1.08 | 1.27 | fewer than 50 cells per well; well left out of scoring | inactive
Tnrc6a (GeneID 233833) | 1 | – | 1.27 | 1.2 | fewer than 50 cells per well; well left out of scoring | inactive
S100a8 (GeneID 20201) | 1 | -0.6 | 1.86 | 1.15 | enough cells to score | inactive
Sohlh2 (GeneID 74434) | 1 | 1.76 | 1.37 | 1.52 | enough cells to score | inactive
Tmem216 (GeneID 68642) | 1 | -0.88 | 1.2 | 1.14 | enough cells to score | inactive
Smtnl2 (GeneID 276829) | 1 | -0.52 | 1.54 | 1.65 | enough cells to score | inactive
Atp6v0a4 (GeneID 140494) | 1 | -0.02 | 1.59 | 1.63 | enough cells to score | inactive
Mok (GeneID 26448) | 1 | 0.12 | 1.67 | 1.42 | enough cells to score | inactive
Fpr3 (GeneID 14294) | 1 | 0.19 | 1.52 | 1.62 | enough cells to score | inactive
Fpr3 (GeneID 14294) | 2 | 1.97 | 1.9 | 1.75 | enough cells to score | inactive
Or5h19 (GeneID 258319) | 1 | -0.1 | 1.55 | 1.45 | enough cells to score | inactive
Rnft1 (GeneID 76892) | 1 | -0.79 | 1.36 | 1.41 | enough cells to score | inactive
Sox11 (GeneID 20666) | 1 | -0.68 | 1.37 | 1.12 | enough cells to score | inactive
Zic5 (GeneID 65100) | 1 | 0.68 | 1.48 | 1.34 | enough cells to score | inactive
4930474N05Rik (GeneID 218921) | 1 | – | 0.944 | 1.28 | fewer than 50 cells per well; well left out of scoring | inactive
Tmem218 (GeneID 66279) | 1 | – | 1.23 | 1.5 | fewer than 50 cells per well; well left out of scoring | inactive
Rbl1 (GeneID 19650) | 1 | -0.95 | 1.41 | 1.35 | enough cells to score | inactive
Sord (GeneID 20322) | 1 | 0.2 | 1.56 | 1.6 | enough cells to score | inactive
Mtfp1 (GeneID 67900) | 1 | 0.83 | 1.45 | 1.58 | enough cells to score | inactive
Abhd5 (GeneID 67469) | 1 | -0.07 | 1.58 | 1.63 | enough cells to score | inactive
Abl2 (GeneID 11352) | 1 | -0.88 | 1.58 | 1.27 | enough cells to score | inactive
Or1ak2 (GeneID 258617) | 1 | 1.46 | 1.83 | 1.62 | enough cells to score | inactive
Klhl4 (GeneID 237010) | 1 | 1.22 | 1.67 | 1.64 | enough cells to score | inactive
Adam29 (GeneID 244486) | 1 | -0.65 | 1.5 | 1.54 | enough cells to score | inactive
Lrtm2 (GeneID 211187) | 1 | -0.94 | 1.38 | 1.62 | enough cells to score | inactive
Slc45a1 (GeneID 242773) | 1 | – | 1.52 | 1.42 | fewer than 50 cells per well; well left out of scoring | inactive
Or4c102 (GeneID 258768) | 1 | -0.66 | 1.59 | 1.45 | enough cells to score | inactive
Slc27a4 (GeneID 26569) | 1 | 1.92 | 1.57 | 1.48 | enough cells to score | inactive
Sfr1 (GeneID 67788) | 1 | -0.25 | 1.29 | 1.47 | enough cells to score | inactive
Slco4c1 (GeneID 227394) | 1 | – | 1.29 | 1.48 | fewer than 50 cells per well; well left out of scoring | inactive
Atp1a3 (GeneID 232975) | 1 | -1.78 | 1.26 | 1.34 | enough cells to score | active
